US10804000B2, “High efficiency continuous-flow production of radioisotopes” (priority 2016, dated 2020)

What was measured:
[1] = Irradiation of ammonium molybdate phosphate powder, 99Mo activity in washes, target and capture matrix; conditions: sample 2: irradiated in contact with water capture matrix
Source text: Wash 1, Wash 2, and the irradiated molybdenum target were all analyzed for ^99Mo activity using gamma spectroscopy at the prominent ^99Mo peak of 141 KeV.
Post irradiation the capture matrix was separated from the irradiation target and washed an additional time to determine post irradiation solubility (wash 1).

[2] = Continuous-flow Szilard-Chalmers irradiation (flow loop), enrichment factor; conditions: for Maximum Enrichment Factor: continuous flow, solid powder target

Compound	% Activity in capture matrix [1] [%]	% Activity in target [1] [%]	Maximum Enrichment Factor ([2]; water capture matrix)	increase of the samarium-153 specific activity compared to just irradiating the target under the same conditions ([2]; at enrichment factor 11.19) [%]	Maximum Enrichment Factor ([2]; 10^−4M HNO3 capture matrix)
ammonium molybdate phosphate [Sample 2]	6.5	92.2	–	–	–
CC(=O)C=C(C)[O-].CC(=O)C=C(C)[O-].CC(=O)C=C(C)[O-].[Ho+3] [Holmium acetylacetonate]	–	–	14.83	–	–
CC(=O)C=C(C)[O-].CC(=O)C=C(C)[O-].CC(=O)C=C(C)[O-].[Sm+3] [Compound 1, Samarium acetylacetonate]	–	–	3.56	–	–
Samarium 8-hydroxyquinolinate [Compound 4]	–	–	11.19	91.6	1.37
Holmium 8-hydroxyquinolinate [Compound 5]	–	–	11.26	–	4.54
